Experimental data: the supplement of paper PMC6411743
± gives the standard deviation of the averaged measurements. Some of the results follow.

Protein sequences, listed by entry. Tags and fused reporters are not part of them. Lines headed by an entry give the natural chain unless they say otherwise; changes in a name come on top.
UniProt Q9NR56: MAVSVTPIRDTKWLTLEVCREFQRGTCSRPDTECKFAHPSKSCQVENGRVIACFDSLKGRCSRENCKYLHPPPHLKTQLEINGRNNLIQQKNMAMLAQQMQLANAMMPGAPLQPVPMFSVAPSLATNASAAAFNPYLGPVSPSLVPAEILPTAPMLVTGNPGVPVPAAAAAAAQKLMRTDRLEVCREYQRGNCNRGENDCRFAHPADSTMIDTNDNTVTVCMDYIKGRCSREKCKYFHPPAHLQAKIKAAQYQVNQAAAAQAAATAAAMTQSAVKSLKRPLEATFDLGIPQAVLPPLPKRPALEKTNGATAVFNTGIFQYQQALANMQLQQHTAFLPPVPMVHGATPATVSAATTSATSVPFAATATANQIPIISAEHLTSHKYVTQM
UniProt Q9Y3A5: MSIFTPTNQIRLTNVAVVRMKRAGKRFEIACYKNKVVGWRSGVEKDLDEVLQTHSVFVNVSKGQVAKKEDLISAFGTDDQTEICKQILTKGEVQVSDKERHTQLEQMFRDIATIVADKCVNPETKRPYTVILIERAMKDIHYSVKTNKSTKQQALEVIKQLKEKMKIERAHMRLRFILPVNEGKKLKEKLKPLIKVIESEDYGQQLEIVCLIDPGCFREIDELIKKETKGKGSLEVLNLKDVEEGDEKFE
UniProt P57737: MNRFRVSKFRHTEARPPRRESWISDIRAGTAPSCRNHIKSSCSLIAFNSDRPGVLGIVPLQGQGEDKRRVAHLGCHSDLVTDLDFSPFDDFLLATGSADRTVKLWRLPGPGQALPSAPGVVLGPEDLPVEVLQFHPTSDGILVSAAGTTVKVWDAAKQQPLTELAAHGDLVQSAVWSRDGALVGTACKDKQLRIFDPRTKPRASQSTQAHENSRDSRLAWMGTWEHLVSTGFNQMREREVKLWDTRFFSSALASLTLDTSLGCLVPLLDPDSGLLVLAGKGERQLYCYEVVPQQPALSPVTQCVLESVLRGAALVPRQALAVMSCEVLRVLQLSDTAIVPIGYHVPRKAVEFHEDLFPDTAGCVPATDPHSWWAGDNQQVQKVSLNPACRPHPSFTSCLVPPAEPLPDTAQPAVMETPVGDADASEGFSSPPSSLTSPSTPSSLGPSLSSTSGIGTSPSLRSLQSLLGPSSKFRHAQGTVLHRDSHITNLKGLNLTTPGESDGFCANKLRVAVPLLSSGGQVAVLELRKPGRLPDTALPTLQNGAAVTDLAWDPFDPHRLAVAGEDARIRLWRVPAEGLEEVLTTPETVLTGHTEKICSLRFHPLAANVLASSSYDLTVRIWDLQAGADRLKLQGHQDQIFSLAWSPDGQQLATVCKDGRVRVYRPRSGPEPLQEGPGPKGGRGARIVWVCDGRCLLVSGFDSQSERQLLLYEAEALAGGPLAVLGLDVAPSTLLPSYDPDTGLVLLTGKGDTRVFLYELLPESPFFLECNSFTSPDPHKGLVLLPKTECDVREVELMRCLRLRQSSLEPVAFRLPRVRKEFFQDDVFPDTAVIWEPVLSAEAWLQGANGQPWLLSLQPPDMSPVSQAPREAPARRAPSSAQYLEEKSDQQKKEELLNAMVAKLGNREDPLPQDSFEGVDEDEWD
UniProt Q14966: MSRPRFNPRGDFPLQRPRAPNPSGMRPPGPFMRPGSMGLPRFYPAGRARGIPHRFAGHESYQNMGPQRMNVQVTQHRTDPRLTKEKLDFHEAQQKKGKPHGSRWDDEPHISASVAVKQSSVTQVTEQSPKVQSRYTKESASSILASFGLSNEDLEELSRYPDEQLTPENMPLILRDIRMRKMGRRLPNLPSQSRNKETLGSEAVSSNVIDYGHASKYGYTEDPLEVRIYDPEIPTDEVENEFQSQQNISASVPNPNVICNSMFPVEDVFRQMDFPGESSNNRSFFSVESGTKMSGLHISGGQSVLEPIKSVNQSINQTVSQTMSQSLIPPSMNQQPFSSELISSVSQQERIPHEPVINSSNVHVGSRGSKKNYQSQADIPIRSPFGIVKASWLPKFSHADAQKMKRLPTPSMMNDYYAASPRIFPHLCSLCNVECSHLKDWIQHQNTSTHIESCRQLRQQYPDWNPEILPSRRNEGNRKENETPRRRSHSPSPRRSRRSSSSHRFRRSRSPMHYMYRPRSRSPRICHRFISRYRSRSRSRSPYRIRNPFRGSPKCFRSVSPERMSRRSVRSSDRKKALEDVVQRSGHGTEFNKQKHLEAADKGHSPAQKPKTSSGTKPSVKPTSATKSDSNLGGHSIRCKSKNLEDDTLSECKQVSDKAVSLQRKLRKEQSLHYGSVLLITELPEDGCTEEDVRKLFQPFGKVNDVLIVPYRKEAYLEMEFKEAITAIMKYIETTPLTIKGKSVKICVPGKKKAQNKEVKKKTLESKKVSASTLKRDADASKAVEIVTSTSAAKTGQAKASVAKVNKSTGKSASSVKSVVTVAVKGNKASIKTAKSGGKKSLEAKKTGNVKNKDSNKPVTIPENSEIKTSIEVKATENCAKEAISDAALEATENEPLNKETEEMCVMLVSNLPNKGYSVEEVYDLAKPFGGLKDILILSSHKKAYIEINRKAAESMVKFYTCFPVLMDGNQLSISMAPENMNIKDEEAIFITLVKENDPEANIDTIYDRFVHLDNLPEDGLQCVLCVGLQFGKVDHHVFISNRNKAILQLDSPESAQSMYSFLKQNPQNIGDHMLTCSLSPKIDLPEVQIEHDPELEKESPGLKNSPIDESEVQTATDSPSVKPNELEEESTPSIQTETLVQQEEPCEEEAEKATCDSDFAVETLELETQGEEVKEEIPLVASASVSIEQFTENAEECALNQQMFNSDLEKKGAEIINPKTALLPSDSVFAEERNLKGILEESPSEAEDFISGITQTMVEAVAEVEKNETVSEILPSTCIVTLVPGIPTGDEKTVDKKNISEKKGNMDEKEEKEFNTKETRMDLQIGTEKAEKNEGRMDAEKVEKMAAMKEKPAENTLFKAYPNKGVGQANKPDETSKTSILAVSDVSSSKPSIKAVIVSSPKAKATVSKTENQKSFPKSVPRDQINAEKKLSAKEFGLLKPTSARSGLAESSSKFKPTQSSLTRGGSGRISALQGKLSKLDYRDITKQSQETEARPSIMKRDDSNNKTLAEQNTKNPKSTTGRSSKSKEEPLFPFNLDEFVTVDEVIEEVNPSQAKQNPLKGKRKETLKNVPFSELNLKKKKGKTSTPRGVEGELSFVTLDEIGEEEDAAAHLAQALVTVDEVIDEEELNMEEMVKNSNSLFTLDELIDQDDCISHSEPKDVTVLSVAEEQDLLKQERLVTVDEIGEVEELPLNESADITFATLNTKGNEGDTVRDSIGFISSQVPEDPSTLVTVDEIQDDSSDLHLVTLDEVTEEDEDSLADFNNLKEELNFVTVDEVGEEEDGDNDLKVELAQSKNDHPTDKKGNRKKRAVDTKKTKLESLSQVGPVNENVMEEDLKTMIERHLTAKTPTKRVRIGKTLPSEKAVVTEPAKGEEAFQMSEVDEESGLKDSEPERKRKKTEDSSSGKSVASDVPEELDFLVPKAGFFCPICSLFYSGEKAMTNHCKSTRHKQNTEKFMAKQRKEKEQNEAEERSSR
UniProt Q9NRZ9: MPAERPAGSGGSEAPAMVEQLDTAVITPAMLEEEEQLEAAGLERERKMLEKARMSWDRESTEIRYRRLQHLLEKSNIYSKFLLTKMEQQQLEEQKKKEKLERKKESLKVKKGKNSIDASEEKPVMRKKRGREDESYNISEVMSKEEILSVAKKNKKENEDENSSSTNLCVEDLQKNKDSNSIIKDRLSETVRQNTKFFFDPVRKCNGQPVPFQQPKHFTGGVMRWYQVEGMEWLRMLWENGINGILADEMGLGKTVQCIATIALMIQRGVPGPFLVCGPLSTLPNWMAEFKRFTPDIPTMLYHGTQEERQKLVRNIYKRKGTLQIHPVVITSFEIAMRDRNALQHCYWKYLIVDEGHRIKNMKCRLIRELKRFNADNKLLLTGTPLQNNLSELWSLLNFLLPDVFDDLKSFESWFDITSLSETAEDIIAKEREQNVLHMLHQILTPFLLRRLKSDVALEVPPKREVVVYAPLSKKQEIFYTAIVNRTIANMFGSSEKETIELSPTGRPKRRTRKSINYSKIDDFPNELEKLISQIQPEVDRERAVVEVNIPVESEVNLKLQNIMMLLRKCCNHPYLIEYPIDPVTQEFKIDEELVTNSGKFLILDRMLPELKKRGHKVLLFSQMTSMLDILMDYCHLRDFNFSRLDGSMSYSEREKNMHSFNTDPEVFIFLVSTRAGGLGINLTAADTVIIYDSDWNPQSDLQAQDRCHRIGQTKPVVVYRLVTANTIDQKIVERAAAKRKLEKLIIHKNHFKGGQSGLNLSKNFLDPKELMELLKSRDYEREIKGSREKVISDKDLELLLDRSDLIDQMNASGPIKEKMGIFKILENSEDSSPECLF
UniProt Q13616, whole entry: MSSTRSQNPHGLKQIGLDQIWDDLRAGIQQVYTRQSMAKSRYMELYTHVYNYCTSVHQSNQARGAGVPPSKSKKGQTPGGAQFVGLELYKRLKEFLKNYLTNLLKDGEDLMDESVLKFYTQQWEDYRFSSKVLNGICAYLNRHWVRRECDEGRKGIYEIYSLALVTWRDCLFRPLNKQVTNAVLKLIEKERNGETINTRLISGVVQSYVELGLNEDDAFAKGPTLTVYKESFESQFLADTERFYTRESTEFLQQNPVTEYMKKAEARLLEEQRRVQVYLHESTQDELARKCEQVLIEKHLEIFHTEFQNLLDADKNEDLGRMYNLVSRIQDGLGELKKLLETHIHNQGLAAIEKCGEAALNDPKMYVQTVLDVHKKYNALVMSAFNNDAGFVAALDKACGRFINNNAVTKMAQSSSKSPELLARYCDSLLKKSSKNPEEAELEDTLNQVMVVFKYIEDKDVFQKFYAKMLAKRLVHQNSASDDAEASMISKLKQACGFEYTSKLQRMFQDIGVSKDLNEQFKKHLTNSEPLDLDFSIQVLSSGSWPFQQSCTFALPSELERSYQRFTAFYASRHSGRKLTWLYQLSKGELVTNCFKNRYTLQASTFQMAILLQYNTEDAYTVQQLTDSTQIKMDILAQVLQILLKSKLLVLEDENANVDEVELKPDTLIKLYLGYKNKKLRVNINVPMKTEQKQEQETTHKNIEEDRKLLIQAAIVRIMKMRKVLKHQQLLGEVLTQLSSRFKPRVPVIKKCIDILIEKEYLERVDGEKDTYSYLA
UniProt Q9Y3B3: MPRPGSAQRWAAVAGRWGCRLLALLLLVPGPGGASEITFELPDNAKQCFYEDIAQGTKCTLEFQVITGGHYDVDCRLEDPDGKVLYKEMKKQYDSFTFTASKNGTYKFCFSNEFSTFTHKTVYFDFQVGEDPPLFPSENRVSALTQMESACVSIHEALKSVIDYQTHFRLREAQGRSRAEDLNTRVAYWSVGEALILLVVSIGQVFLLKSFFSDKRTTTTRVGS
UniProt Q14527: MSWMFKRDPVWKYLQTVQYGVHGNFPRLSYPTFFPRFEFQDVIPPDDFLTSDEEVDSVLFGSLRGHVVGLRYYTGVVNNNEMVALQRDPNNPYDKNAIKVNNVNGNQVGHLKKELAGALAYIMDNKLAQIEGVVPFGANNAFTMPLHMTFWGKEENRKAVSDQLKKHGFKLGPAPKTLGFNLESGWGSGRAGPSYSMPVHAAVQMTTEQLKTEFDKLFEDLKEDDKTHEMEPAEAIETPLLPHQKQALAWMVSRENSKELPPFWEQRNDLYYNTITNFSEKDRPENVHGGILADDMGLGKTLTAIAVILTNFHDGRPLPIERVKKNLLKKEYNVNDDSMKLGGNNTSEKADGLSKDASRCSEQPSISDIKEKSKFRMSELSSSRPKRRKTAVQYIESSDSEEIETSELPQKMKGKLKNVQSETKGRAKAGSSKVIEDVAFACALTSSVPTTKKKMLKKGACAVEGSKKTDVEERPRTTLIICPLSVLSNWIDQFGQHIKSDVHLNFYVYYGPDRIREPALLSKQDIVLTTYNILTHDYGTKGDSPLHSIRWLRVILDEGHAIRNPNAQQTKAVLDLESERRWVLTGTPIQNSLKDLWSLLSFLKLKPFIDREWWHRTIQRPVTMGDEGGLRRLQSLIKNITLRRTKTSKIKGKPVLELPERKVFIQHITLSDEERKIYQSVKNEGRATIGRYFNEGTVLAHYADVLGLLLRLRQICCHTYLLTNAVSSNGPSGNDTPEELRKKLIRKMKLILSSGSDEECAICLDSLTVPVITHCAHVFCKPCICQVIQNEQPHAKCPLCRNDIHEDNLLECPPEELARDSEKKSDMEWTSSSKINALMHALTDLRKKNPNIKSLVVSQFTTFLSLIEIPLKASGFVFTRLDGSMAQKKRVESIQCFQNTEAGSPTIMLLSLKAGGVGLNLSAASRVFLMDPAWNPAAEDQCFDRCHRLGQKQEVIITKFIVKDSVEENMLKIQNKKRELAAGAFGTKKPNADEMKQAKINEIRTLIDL

Compound: Nc1nc2c(ncn2[C@@H]2O[C@H](COP(=O)(O)OP(=O)(O)OP(=O)(O)O)[C@@H](O)[C@H]2O)c(=O)[nH]1 [guanosine triphosphate]
Test: NP40-soluble protein abundance relative to vehicle (solubility fold change) (ratio); higher = more soluble protein in presence of GTP
Procedure, shortened: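 Across three independent experiments, values are fold changes against the detergent-processed vehicle for each replicate, based on vsn-normalised intensities. The samples were Jurkat crude lysate treated with eight concentrations (0.1 to 10 mM) for 10 min at room temperature and then 3 min at 37 °C. Lysate was solubilised with 0.8% NP40 and benzonase, ultracentrifuged, and the supernatant analysed by TMT-labelled LC-MS/MS.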

Target	NP40-soluble protein abundance (concentration: 0.1mM)	NP40-soluble protein abundance (concentration: 0.5mM)	NP40-soluble protein abundance (concentration: 1mM)	NP40-soluble protein abundance (concentration: 2mM)	NP40-soluble protein abundance (concentration: 4mM)	NP40-soluble protein abundance (concentration: 6mM)	NP40-soluble protein abundance (concentration: 8mM)	NP40-soluble protein abundance (concentration: 10mM)
A0A0A0MQX8|C9JP00 and related entries (UniProt Q9NR56)	0.894 ± 0.052	0.869 ± 0.017	0.977 ± 0.05	0.946 ± 0.032	0.921 ± 0.039	0.928 ± 0.072	0.913 ± 0.06	0.955 ± 0.03
A0A0G2JNB1|A0A0G2JNT7|A0A0G2JQF5|A0A0J9YVS1|I3L4J3 and related entries (UniProt Q7Z3B3)	1.08 ± 0.076	1.03 ± 0.06	1.09 ± 0.13	1.06 ± 0.054	1.09 ± 0.084	1.07 ± 0.07	1.11 ± 0.018	1.07 ± 0.06
A0A087X020|Q9Y3A5 (UniProt Q9Y3A5)	0.967 ± 0.044	1.01 ± 0.018	0.873 ± 0.011	0.877 ± 0.07	0.885 ± 0.02	0.914 ± 0.012	0.872 ± 0.021	0.908 ± 0.083
A0A0A6YYL4|P57737-3|P57737 and related entries (UniProt P57737)	1.01 ± 0.015	1.02 ± 0.038	0.952 ± 0.058	0.949 ± 0.03	0.95 ± 0.027	0.937 ± 0.048	0.927 ± 0.042	0.906 ± 0.058
A0JP02 and related entries (UniProt Q9HAU0)	1.01 ± 0.068	0.993 ± 0.14	1.02 ± 0.017	1.05 ± 0.099	1.07 ± 0.062	1.097 ± 0.0031	1.17 ± 0.088	1.15 ± 0.083
A0A0A0MRJ0|Q5VT25 and related entries (UniProt Q5VT25)	0.998 ± 0.013	1.03 ± 0.049	1.17 ± 0.025	1.25 ± 0.12	1.25 ± 0.033	1.17 ± 0.078	1.27 ± 0.041	1.2 ± 0.048
A0A087X1Z3|Q9UL46 (UniProt Q9UL46)	0.855 ± 0.11	0.814 ± 0.067	1.03 ± 0.14	1.04 ± 0.062	1.04 ± 0.094	1.01 ± 0.053	0.919 ± 0.19	1.1 ± 0.18
A0A096LP10|Q9NP73-2 (UniProt Q9NP73)	1.04 ± 0.1	0.989 ± 0.02	1.02 ± 0.06	0.89 ± 0.077	0.999 ± 0.12	0.896 ± 0.053	0.985 ± 0.1	0.887 ± 0.022
A0A096LPH6|Q14966 and related entries (UniProt Q14966)	0.943 ± 0.025	0.997 ± 0.062	0.993 ± 0.055	0.998 ± 0.094	1.02 ± 0.062	1.06 ± 0.083	1.08 ± 0.07	1.1 ± 0.091
A0A0U1RRM6|Q8N8S7 and related entries (UniProt Q8N8S7)	1.14 ± 0.12	1.08 ± 0.12	1.13 ± 0.094	1.05 ± 0.22	1.04 ± 0.058	0.995 ± 0.13	1.01 ± 0.11	1.01 ± 0.12
A0A087X1F9|E9PI02 and related entries (UniProt Q00613)	0.936 ± 0.043	0.877 ± 0.082	0.908 ± 0.079	0.843 ± 0.11	0.852 ± 0.1	0.887 ± 0.093	0.892 ± 0.11	0.868 ± 0.092
A0A0C3SFZ9|M0QZI3 and related entries (UniProt O14526)	1.07 ± 0.037	1.05 ± 0.035	1.02 ± 0.0047	1.02 ± 0.016	1.03 ± 0.017	0.984 ± 0.011	1.03 ± 0.036	1 ± 0.016
A0A0B4J1S8|Q9UBF8 and related entries (UniProt Q9UBF8)	1.05 ± 0.054	1.01 ± 0.092	1.02 ± 0.049	0.993 ± 0.11	0.968 ± 0.033	0.969 ± 0.039	0.964 ± 0.011	0.92 ± 0.032
A0A0R4J2F2|D6R9S8 and related entries (UniProt Q9NY35)	0.9726 ± 0.0073	0.958 ± 0.022	0.902 ± 0.013	0.95 ± 0.094	0.922 ± 0.017	0.923 ± 0.12	0.94193 ± 0.00026	0.968 ± 0.023
A0A0A6YYI3|A0A0B4J1V8|Q9NQ55 and related entries (UniProt Q9NQ55)	0.987 ± 0.052	0.972 ± 0.063	0.973 ± 0.095	1.06 ± 0.041	1.03 ± 0.047	1.18 ± 0.019	1.18 ± 0.07	1.373 ± 0.0097
A0A0B4J1V9|Q9NRZ9 and related entries (UniProt Q9NRZ9)	1.04 ± 0.037	1.09 ± 0.014	1.11 ± 0.025	1.123 ± 0.01	1.15 ± 0.018	1.16 ± 0.022	1.16 ± 0.053	1.12 ± 0.04
A0A140T9B7|P01889 and related entries (UniProt P30493+P30685+Q04826+D0EV57+P01889+P30460+Q29865+Q6DU44+Q8MH48+P10321+P30486+P30508+Q29718+Q29836+P04440+P04439+Q5SRN5+O19617+Q29963+Q9TNN7)	0.979 ± 0.083	0.96 ± 0.085	0.946 ± 0.068	0.914 ± 0.085	0.898 ± 0.07	0.903 ± 0.081	0.912 ± 0.061	0.893 ± 0.075
A0A0C4DG17|C9J9K3 and related entries (UniProt P08865)	0.957 ± 0.064	1 ± 0.067	1.02 ± 0.12	0.959 ± 0.14	0.901 ± 0.21	0.867 ± 0.2	0.801 ± 0.17	0.833 ± 0.2
A0A0D9SFB1|A0A0D9SFE4|A0A0U1RQP1|Q05193 and related entries (UniProt Q05193)	0.924 ± 0.21	0.916 ± 0.22	0.946 ± 0.17	0.915 ± 0.21	0.961 ± 0.21	0.947 ± 0.21	0.884 ± 0.18	0.909 ± 0.18
A0A0C4DGX4|Q13616 (UniProt Q13616)	1.05 ± 0.041	1.07 ± 0.055	0.984 ± 0.044	0.974 ± 0.067	0.957 ± 0.049	0.98 ± 0.061	0.97 ± 0.035	0.918 ± 0.055
A0A087WXI0 (UniProt Q7Z6P3)	0.997 ± 0.12	0.938 ± 0.11	0.96 ± 0.096	0.929 ± 0.09	0.963 ± 0.097	0.93 ± 0.14	0.944 ± 0.098	0.941 ± 0.14
A0A0A6YYA0|Q86XR7-2|Q9Y3B3 and related entries (UniProt Q9Y3B3+Q86XR7)	0.96 ± 0.033	0.989 ± 0.12	0.892 ± 0.01	0.926 ± 0.016	0.892 ± 0.038	0.946 ± 0.029	0.922 ± 0.013	0.881 ± 0.041
A0A0C4DGA6|Q14527 (UniProt Q14527)	1.032 ± 0.0087	1.02 ± 0.02	0.9857 ± 0.0068	0.988 ± 0.033	0.996 ± 0.022	0.984 ± 0.016	0.981 ± 0.018	0.932 ± 0.017
A0A0C4DGG1|Q9UKS6 (UniProt Q9UKS6)	0.979 ± 0.1	0.988 ± 0.17	1 ± 0.12	0.981 ± 0.13	0.978 ± 0.095	1.05 ± 0.16	1.02 ± 0.17	1.08 ± 0.12
A0A0C4DGX2|E7ESL0 and related entries (UniProt Q9NWU5)	1.23 ± 0.17	1.33 ± 0.36	1.35 ± 0.43	1.51 ± 0.47	1.47 ± 0.4	1.48 ± 0.48	1.46 ± 0.46	1.33 ± 0.45

Part of the list above in a different format:
A0A0A6YYL4|P57737-3|P57737 and related entries (UniProt P57737)
  NP40-soluble protein abundance (concentration: 0.1mM): 1.01 ± 0.015
  NP40-soluble protein abundance (concentration: 0.5mM): 1.02 ± 0.038
  NP40-soluble protein abundance (concentration: 1mM): 0.952 ± 0.058
  NP40-soluble protein abundance (concentration: 2mM): 0.949 ± 0.03
  NP40-soluble protein abundance (concentration: 4mM): 0.95 ± 0.027
  NP40-soluble protein abundance (concentration: 6mM): 0.937 ± 0.048
  NP40-soluble protein abundance (concentration: 8mM): 0.927 ± 0.042
  NP40-soluble protein abundance (concentration: 10mM): 0.906 ± 0.058
A0A0C4DGA6|Q14527 (UniProt Q14527)
  NP40-soluble protein abundance (concentration: 0.1mM): 1.032 ± 0.0087
  NP40-soluble protein abundance (concentration: 0.5mM): 1.02 ± 0.02
  NP40-soluble protein abundance (concentration: 1mM): 0.9857 ± 0.0068
  NP40-soluble protein abundance (concentration: 2mM): 0.988 ± 0.033
  NP40-soluble protein abundance (concentration: 4mM): 0.996 ± 0.022
  NP40-soluble protein abundance (concentration: 6mM): 0.984 ± 0.016
  NP40-soluble protein abundance (concentration: 8mM): 0.981 ± 0.018
  NP40-soluble protein abundance (concentration: 10mM): 0.932 ± 0.017
